For this data set, the target named is T1, Clr (Sinorhizobium meliloti) (UniProt Q92SD2).
T1 sequence (looked up): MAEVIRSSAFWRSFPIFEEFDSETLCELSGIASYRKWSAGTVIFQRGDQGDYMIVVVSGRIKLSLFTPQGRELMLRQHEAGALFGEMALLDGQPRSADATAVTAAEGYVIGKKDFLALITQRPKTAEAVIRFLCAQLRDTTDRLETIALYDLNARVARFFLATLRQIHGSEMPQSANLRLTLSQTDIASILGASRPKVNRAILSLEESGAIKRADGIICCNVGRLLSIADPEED
Briefly: EMSA. To be noted: 1 mM cAMP, EMSA: 2 mM HEPES pH 7.0, 30 mM NaCl, 50 mM KCl, 850 ng salmon sperm DNA, 1 ug BSA, 20 ng Cy3-DNA, 3 ug Clr in 10 uL, room temperature, recombinant protein, residues 1-234, protein details: C-terminal His6 (pET36b, NdeI/XhoI), label: 5'-Cy3 on reverse strand. A general note: A gel shift assay detects complexes by their altered migration in electrophoresis.

Negatives hold for the conditions tested. Protein sequences can lack the tags named with them. Weaker means in comparison with the reference protein, sequence or condition of that experiment.

Turning to “AGCGGATAACAATTTCACACAGGAAACAGCATATGACCATGATTACGCCAAGCTCGAAATTAACCCTCACTAAAGGGAACAAAAGCTGGAGCTCTTAAGCTTTTGCTCAACCTAATGCCCGTGCCGGTGCTTGATGGCGGCCATCTGATGTTCTATGCGGTCGAAGCGTTGCGCGGCAGGCCGGTCGGTCCTGCCGCACAGGATCTCGCATTCCGCATAGGCTTTGCCATGGTGCTCATGCTGACGGTTTTTGCGGCCTGGAACGATATCAACTGGCTCTTCGGATAGGGGCGGAGTCTTGGGCGGGAGCGGACATCGTTAAGGATTCGGGGAGCGAGTGAGTTTCGCCGGCTGCTCGATAACGGTTTGTTTACGATAATAAGAGGCCGTAGTGGCTGTTAAGCCACGGTTGGAATTGAAGTAAACAGAAATTAACGAGCTGACTTGCTTGTATGGGAAAAGCGGTTAAAACGGCAACCGTGACCGGAGTCGGCACGAAACTGCCGCGGGACGTTGGGAAAAGGTAAGATTTTGACATGAAAGCTGGTTCAAGGTTTTTGAACGCGGTGTCGTCTAGACTGCAGATGGTGAGCAAGGGCGAGGAGCTGTTCA (double strand) [omp]”, the binding result is listed as “no binding”.
With “AGCGGATAACAATTTCACACAGGAAACAGCATATGACCATGATTACGCCAAGCTCGAAATTAACCCTCACTAAAGGGAACAAAAGCTGGAGCTCTTAAGCTTCGTTCATCTTCGTCCTGCCCGGATCCCCCGGTGCCTGCAAGGACGCCTGGGACGGAATCCTGAAGCAGCAACTCGATTACCGGCACATGCCGTGCAATTTCGTCGAGATCATGCCGCGGCTCGACGAGCACCTGAAGCGCGGCTGACGAGATTCGTGTTCCGTTTGGAACAGACCCGCGCCCCGAATCCCGCTAGTTTGCCTTCGTCGGCTTGGCTCGAAGCGGGCAAGGCAAGCACCGTTTAATTGCATTAAAGAGGAGAAATCTAGAATGACTAGACTGCAGATGGTGAGCAAGGGCGAGGAGCTGTTCA (double strand) [SmelC181]” the entry was “binds”; with “AGCGGATAACAATTTCACACAGGAAACAGCATATGACCATGATTACGCCAAGCTCGAAATTAACCCTCACTAAAGGGAACAAAAGCTGGAGCTCTTAAGCTTAGCTTTTGCGTCGTGATTCGCAGCATGCCCATGCTCAATGCCTATCATCGGGCTCAAAATTGTCAATCTTCAGCTCACATCGACACGCAGGGCGCATCGACGTGTGGCGCGACTACAACGGGCGAACTTCGCCGCTGCAACCCGATTTCGAGTTCTAGGGCTTACAACGATGGCAAGGTCAATCGGAAAATATCGGGGACGAGAAAAAAGTCGAAAGTCTCAGGTGCCGTGGCATGCCCGCCACGGTCAGGAAATTGTTAACCATATTCTCGGTTCCTCGGGGAACAGCCCGGCCGGCGCCACAGGAATAACTCTATTCCGCGCTCTTTCGAACGCGGAAGCAAAACAACAGGTCGGAGAAGATGGATATGATCAAATCGGGTCTCGGCTCTAGACTGCAGATGGTGAGCAAGGGCGAGGAGCTGTTCA (double strand) [SMc02278 / SMc02279]”, “binds”.
Next, “AGCGGATAACAATTTCACACAGGAAACAGCATATGACCATGATTACGCCAAGCTCGAAATTAACCCTCACTAAAGGGAACAAAAGCTGGAGCTCTTAAGCTTTATCGGTACAGCTTTCCGCACCGCAGACAATCGCCGCAACGGCAATGAACAGGATCGACGTCAACGGATGGCGCGCATTGCGACCGCGCGGATCGGGCAAATCTTCAAAGCAAGCGGCAAATCTACTCATCGAGACCTCCAAGTCAGCGGAGAACTCCAAGAATCGATTTGCCGCAACAAAACAACCGCTTATTTTGCTAAATGCGATTCCCCTGGGTGGTGGGGGGGGCGGTCAAGTTACAGTTACGTAATGAGCATCACTCTTGGATGAGCAAAAGTGACAAATCGTCAAACGCTTTCGACCGGTGCCGGGTGTTATCTTGGTAACCGCAGCATCCGTAGGAGGCTCGTATGCTGAACAGTAGCATCCATTGGGAGGTGGGATGCCTAACGGACATAGGAGTTAATGCCATGAGAGTTTCTCTGTCTAGACTGCAGATGGTGAGCAAGGGCGAGGAGCTGTTCA (double strand) [SMc05008]”: “binds”; “AGCGGATAACAATTTCACACAGGAAACAGCATATGACCATGATTACGCCAAGCTCGAAATTAACCCTCACTAAAGGGAACAAAAGCTGGAGCTCTTAAGCTTTCGCTCGGTGGCTGCAATTCGAAATTGAGTACTTGCCGATCGGCCGGTCTCGTGCAAGGATCACCTCATCCGCAATTCAAATCAGAGGAGGCGTAAGATGGATTCCAATCTCGTGTTTGTGCGCCTCTGCGGCGGAACGGCTATCACGCCTTCGATGCGTAGCGCATCTCGTTTCAGCCGCTACTGATCCAAGGCTCACAAGCCCGCAATTCCGCCATTTGGCGATCCCCTTTTTACCTGACGTGACCGGATGACGGGGCGATTGTTCGCATTTTTGCGTTCCGCATCCGCACGTCTCTGATCCTCGAAAGGACCTGGCTGCGTCACTGCGCCGGGACGGACAGTCATGCGTGAACCACAAGCTATCTAGACTGCAGATGGTGAGCAAGGGCGAGGAGCTGTTCA (double strand) [SMb20647]”: “binds more weakly”.
With “AGCGGATAACAATTTCACACAGGAAACAGCATATGACCATGATTACGCCAAGCTCGAAATTAACCCTCACTAAAGGGAACAAAAGCTGGAGCTCGGAGACCGTGTTTCCGTTAAGAAATCATTAGGATTTTAATGAATGGGGAACGCTCATAATTGTAAGAGCCCGGCTAATGTGTCACTACGATACGATTAGGAACGGGTCCGTATATGAAAATGGCAACTGTTCCGGTGGATAAGCTGCGTCACAAGGTGTCGCAGGGCATAGGCTGCGGCTATCCATCGAGGCGATGTAATGGGTGATCAGTCAATCTATGGCTTCATTGCGAAGCTTGGACCTTGCGGTCACCGCCCTGGTTCGGATGTTCCGCTGGGCACCTGGCGGCACAGGAAGACGGCCATCATCGGGCAATAGTAGTGAGGCGTATCCGTATGGCGACGAAGAAGACCAACTCTAGACTGCAGATGGTGAGCAAGGGCGAGGAGCTGTTCA (double strand) [SMc00190]” the entry was “binds more weakly”; with “AGCGGATAACAATTTCACACAGGAAACAGCATATGACCATGATTACGCCAAGCTCGAAATTAACCCTCACTAAAGGGAACAAAAGCTGGAGCTCTTAAGCTTCCGTCTCGATCAGATTCGGGATGAGATCGGCGCGGCGCTTCAACTGCACGTCGATGCCGGACCAGGCCTCCTCGGCCATCTGCCGCGCCTTGACGAGGCCGTTATAGACGAAGACGAGATAAAGAATAACGGCGACGCCAATTGCCAGCCCGATCATCAAACCCTCCTTTGGATCACGGCGATCCTACTGCATGCTTTCTTAAATTCCATTCGATTCAAGAACAAACCAACGTTCTACAGCGGCCGATCACAAGACCGCCCCTGCCCCTGCCCAGCAGGTCGTGCCGACGCCTGCAGCCTCAGGCTGTTCCACCGGTAACGGCAACGCGTCGGCGGATGCTCGATAGTCTATTCATCGAACAACCACAACGCTTAGTGCCCGCCATGAACACGCCCGTGAGCTTCTCTAGACTGCAGATGGTGAGCAAGGGCGAGGAGCTGTTCA (double strand) [SMc00853 / SMc00854]”, “binds”.
“AGCGGATAACAATTTCACACAGGAAACAGCATATGACCATGATTACGCCAAGCTCGAAATTAACCCTCACTAAAGGGAACAAAAGCTGGAGCTCTTAAGCTTTCCGGCACGCACATTAAGGTCCGTCAGCGTCGTTGCGCTCATTTCGGCATAGGCTGCGGGAATGGCGGCGAGCATCGCACCGGCTGCCAAAGCCGCTCTGAGCGAGGCCGCTTTGAACAGAGTCGGAGAGAGAGTCTTCATCATCTTGCTCCTCTTTCATTTGCAGGCCAGAACGCGCCGCGCCTCAGGGATGTTCCCCCCGTGACATCACGAAATGTGAGGATGAAACATATTGCCGTCGTCAAGCGTTGCCCGGGCTGACGGAAGCTGACGAAGTCTTCCCTATATTGTTCGCCGGCAATGCGCGGCCGATTTATCGATTTCTGCCCGACACAGGCTGGCTCCAGCCGGGAGTGACGAGATGCAAGGTGAGTTATCGGACGATGCCTCTAGACTGCAGATGGTGAGCAAGGGCGAGGAGCTGTTCA (double strand) [SMc01589 / SMc01590]”: the binding result is given as “binds”.
Next, “AGCGGATAACAATTTCACACAGGAAACAGCATATGACCATGATTACGCCAAGCTCGAAATTAACCCTCACTAAAGGGAACAAAAGCTGGAGCTCTTAAGCTTCCGCCGAAATATGGACGAACACGTCAGCGGCGCCGTCATCTGGCTGGATGAAACCGAAGCCCTTGGTGCTGTTGAACCACTTTACCGTTCCAGAAGCCACGTCGATGTCCTTTCAATAGCCATGGAAAACCGCCACCGCATAAAAACGGTGTATCAAAACCGATGTTGTCAGGATTTTCGTGACGATGCGCCTTGGCGCAGAAACAAATATCGTCGATCAATATCGATACCGAGCTATGTAGGTCATCATTGTGTTTCTTACAAGGCACAATTTTATTTTCTTTCGGGAGAAGACTATCGGCGCGACCGCAGGCGGCCCGGCCAAGGCAGCAATGCTGCAATTAGCTTGTGGACTTTCCCCCAACGGGCCTTAAATCTCCGCACTGGACCAACTCTCAGGACAATCCCCCATGCACGATCCGATCCCGACCATCGCTTTTCCGTCTAGACTGCAGATGGTGAGCAAGGGCGAGGAGCTGTTCA (double strand) [cspA2 / SMc01429]”: “no binding”.
Next, “AGCGGATAACAATTTCACACAGGAAACAGCATATGACCATGATTACGCCAAGCTCGAAATTAACCCTCACTAAAGGGAACAAAAGCTGGAGCTCTTAAGCTTCGATCAGCCGGACCTTCGATCCGCGCTTTTCAGCGATCCTAAAGACGCGGGCCGCGGGGCCGCCCTGAGCGCTAACGGCGTGGCGAATCGCTCGCGAAAATACGGATTGTTATTCTTACTTGAAATATTGCCGATATAGCGCTTAAATGCGCACCAGTCGGCGGGATCACATTTAACTGCTGCATGATTATTTGATTGCGTCTGCAACATTTCGCAGGCGGCTACATTTTTATTTGCATACCATTTTTATTATTTAAAATCAGAGGGATTGCGATATGTCTCTTCCCCATCTAGACTGCAGATGGTGAGCAAGGGCGAGGAGCTGTTCA (double strand) [nodP2]”: “no binding”; “AGCGGATAACAATTTCACACAGGAAACAGCATATGACCATGATTACGCCAAGCTCGAAATTAACCCTCACTAAAGGGAACAAAAGCTGGAGCTCTTAAGCTTCCGGAAGGCACGGAAATGGTCATGCCGGGCGACAACGTCACGGTTGACGTCGAGCTGATCGTGCCGATCGCGATGGAAGAAAAGCTGCGCTTCGCTATCCGCGAAGGCGGCCGCACCGTCGGCGCAGGCATCGTCGCCTCCATCGTCGAGTAACAAGAAAACGGCTTGAGCCGTTTCGGCAGGGACATGGTCCGCCATGTCCCTGCGATTTTTGAAAAGAAGCGGCTAAGCGAAACGAATACTTCAAGTGTGTGCTTCGTGAGCACACCGGAAAACACGAGCAAGGACAAGTCGAATGAACGGCCAGAATATCCGCTCTAGACTGCAGATGGTGAGCAAGGGCGAGGAGCTGTTCA (double strand) [rpsJ]”: “binds more weakly”.

Values taken from article PMC10127613 (mBio, 2023).
